Results deposited as PubChem BioAssay AID504791 (Drosophila RNAi Screening Center, 2011).

Aim: 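Genes whose knock-down strengthens or weakens small-RNA reporter silencing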 (primary screen)
Cell system: Drosophila S2-derived reporter cells
Knock-down reagent: long dsRNA against Drosophila genes, about 150-250 ng dsRNA per well (siRNA assay); about 80-120 ng (miRNA assay)
Timing: about 5 days (siRNA assay); about 4 days (miRNA assay)
Challenge: copper sulfate induction of reporters: 25 µM (siRNA assay); 200 mM stated (miRNA assay), 1-2 days before reading
Read-out: 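Per-well ratio of Renilla over firefly light, expressed relative to that plate's average ratio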
Units: stable assay Renilla, run 1 in luminescence; stable assay firefly, run 1 in luminescence
Hit rule: 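First-pass picks had plate-scaled ratios over 1.5 for the siRNA assay, over 1.6 for the miRNA assay, or under 0.6; two distinct dsRNAs had to score alike on retest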
The deposit covers about 23,000 reagents; below is an unselected part of those that have a named target and a result. In the full data, 199 (0.86%) are marked active. 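Plate-scaled ratios behind the calls are not deposited; printed light signals are raw; many rows marked increased or decreased are still called inactive.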 A number with no mark means an inactive call. Reagents against one gene are numbered here. Not given: the direction of the score.

Against isoQC the deposit lists stable assay Renilla, run 1 = 7042; stable assay firefly, run 1 = 4.26e5.
After knock-down of CG15403, the screen gave stable assay Renilla, run 1 = 7003; stable assay firefly, run 1 = 4.27e5.
RhoU #1 showed stable assay Renilla, run 1 = 5519; stable assay firefly, run 1 = 3.81e5.
Depletion of RhoU #2 gave: stable assay Renilla, run 1 = 4312; stable assay firefly, run 1 = 3.33e5.
Knock-down of RhoU #3 gave: stable siRNA reporter change reporter ratio raised past the hit cutoff (active); stable assay Renilla, run 1 = 5020; stable assay firefly, run 1 = 4.56e5.
RhoU #4 scored stable assay Renilla, run 1 = 8580; stable assay firefly, run 1 = 5.18e5.
For RhoU #5 the deposit lists stable assay Renilla, run 1 = 4567; stable assay firefly, run 1 = 5.35e5.
Against CG32944 #1, the values are stable assay Renilla, run 1 = 6787; stable assay firefly, run 1 = 3.57e5.
With knock-down of CG32944 #2, the screen gave stable assay Renilla, run 1 = 7575; stable assay firefly, run 1 = 4.80e5.
CG3502 gave stable assay Renilla, run 1 = 39664; stable assay firefly, run 1 = 8.26e5.
With knock-down of Ugt37C1, the record shows stable assay Renilla, run 1 = 7106; stable assay firefly, run 1 = 3.83e5.
Against Yp3, the values are stable assay Renilla, run 1 = 6258; stable assay firefly, run 1 = 6.75e5.

Single entries from above:
Result of RhoU #1 under “stable assay Renilla, run 1”: 5519
Entry of RhoU #4 in “stable assay Renilla, run 1”: 8580
